Assay results: patent publication US20260209243A1, “A BIOORTHOGONAL CYCLOADDITION REACTION AND USE THEREOF” (NANJING UNIVERSITY, priority 2022, published 2026)

Assay: Kinetics studies: cycloaddition of o-diones with α-AL
Protocol: The cycloaddition kinetics of α-AL with different o-diones in pH 7.4 PBS buffer or in aqueous solution with indicated pH.
Measurement of second order rate constants of (A) reactions of o-dione (25 μM) with furan-2(3H)-one (250 μM) in 1×PBS (pH=7.4) and (B) reactions of oD1 (25 μM) with α-AL (250 μM) in different pH buffer. (When pH=5, 6; oD1 is 250 μM and α-AL is 2.5 mM) by plotting ln[1/(1−x)] versus time of o-dione with furan-2(3H)-one reaction (x represents the percent conversion of o-dione).
All kinetics experiments were carried out at room temperature in 1×PBS (pH=7.4). Second order kinetics were performed by combining o-dione and furan-2(3H)-one in a 1:10 ratio, and the concentration of o-dione is 25/250 μM. Pseudo-first order rate constant kobs was determined by plotting ln[1/(1−x)] versus time and analysis by linear regression. x represents the percent conversion of o-dione. The slope of the linear equation is kobs. The second rate constant k2 was calculated by kobs/[furan-2(3H)-one]. The reported errors for rate constants are based on the standard deviation of the mean for experiments performed in triplicate.

| SMILES | reactivity with α-AL (PBS solution at pH 7.4) | reactivity with α-AL (pH 7.4) | reaction with α-AL in organic solvents (room temperature, benzene and chloroform) |
| --- | --- | --- | --- |
| O=C1C(=O)c2cccnc2-c2ncccc21 [PN, phenanthrolinequinone] | high reactivities |  |  |
| O=C(C(=O)c1ccccc1)c1ccccc1 [Bz] |  | no reactivity |  |
| O=C1C(=O)c2ccccc2-c2ccccc21 [PQ, phenanthrene-9,10-dione] | high reactivities |  | does not occur |
